The test has as its target T1, 5-HT-3 receptor (Rattus norvegicus, UniProt P35563).
T1 sequence (P35563 24-483): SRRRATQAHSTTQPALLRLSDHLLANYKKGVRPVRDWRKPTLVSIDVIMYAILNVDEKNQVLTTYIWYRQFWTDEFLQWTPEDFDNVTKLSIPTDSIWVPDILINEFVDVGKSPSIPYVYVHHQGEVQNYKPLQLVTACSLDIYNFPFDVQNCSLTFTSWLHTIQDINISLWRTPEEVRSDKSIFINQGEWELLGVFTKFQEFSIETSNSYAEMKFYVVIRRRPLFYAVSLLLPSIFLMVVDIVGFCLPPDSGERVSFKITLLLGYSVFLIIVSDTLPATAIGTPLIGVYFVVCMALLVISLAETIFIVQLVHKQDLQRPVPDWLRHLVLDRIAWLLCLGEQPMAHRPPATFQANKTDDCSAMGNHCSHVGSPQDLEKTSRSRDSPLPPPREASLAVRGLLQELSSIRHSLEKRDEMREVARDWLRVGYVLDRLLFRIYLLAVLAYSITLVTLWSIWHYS

Molecules are shown by their SMILES.

Take `CN1CCN2c3ccccc3Cc3ccccc3C2C1` (stereo not shown) [mianserin]: the affinity, expressed as Ki, was 39 nM.

The record behind these values is patent US5723103A, “Substituted benzamides and radioligand analogs and methods of use” (Vanderbilt University, priority 1994, dated 1998).
